In publication PMC9239058:
These are yes or no findings as the source states them, for the method shown. Binding seen in cells or lysates may run through a third protein. Some binding calls cover weakened binding; strength is not graded here. For part of these data: Tags and fused reporters may be left off the sequences shown.

The chains behind the UniProt entries cited, without tags or fusion partners.
UniProt Q16666: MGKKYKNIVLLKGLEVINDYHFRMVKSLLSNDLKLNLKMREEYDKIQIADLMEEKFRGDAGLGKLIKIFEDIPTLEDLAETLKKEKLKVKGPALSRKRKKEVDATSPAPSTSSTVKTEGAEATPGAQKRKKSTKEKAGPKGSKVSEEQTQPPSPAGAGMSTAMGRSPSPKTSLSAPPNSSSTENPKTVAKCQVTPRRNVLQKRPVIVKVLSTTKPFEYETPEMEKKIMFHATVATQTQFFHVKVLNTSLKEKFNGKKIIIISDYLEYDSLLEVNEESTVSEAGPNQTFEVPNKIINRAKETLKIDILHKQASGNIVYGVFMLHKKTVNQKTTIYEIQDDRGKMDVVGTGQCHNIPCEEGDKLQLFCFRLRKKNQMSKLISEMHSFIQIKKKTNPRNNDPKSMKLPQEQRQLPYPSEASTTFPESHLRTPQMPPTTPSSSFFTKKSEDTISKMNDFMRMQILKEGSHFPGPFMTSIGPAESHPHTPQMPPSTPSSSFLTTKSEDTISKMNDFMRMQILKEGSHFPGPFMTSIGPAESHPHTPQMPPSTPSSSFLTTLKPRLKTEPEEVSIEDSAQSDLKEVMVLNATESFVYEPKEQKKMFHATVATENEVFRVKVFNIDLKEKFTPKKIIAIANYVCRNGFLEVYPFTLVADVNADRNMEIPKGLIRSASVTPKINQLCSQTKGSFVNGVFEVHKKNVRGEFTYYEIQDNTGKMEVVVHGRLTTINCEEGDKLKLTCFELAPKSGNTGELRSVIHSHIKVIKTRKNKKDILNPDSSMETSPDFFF

B1: HA-tagged human ChREBPα (protein, UniProt Q9NP71 1-852)
chain: MAGALAGLAAGLQVPRVAPSPDSDSDTDSEDPSLRRSAGGLLRSQVIHSGHFMVSSPHSDSLPRRRDQEGSVGPSDFGPRSIDPTLTRLFECLSLAYSGKLVSPKWKNFKGLKLLCRDKIRLNNAIWRAWYIQYVKRRKSPVCGFVTPLQGPEADAHRKPEAVVLEGNYWKRRIEVVMREYHKWRIYYKKRLRKPSREDDLLAPKQAEGRWPPPEQWCKQLFSSVVPVLLGDPEEEPGGRQLLDLNCFLSDISDTLFTMTQSGPSPLQLPPEDAYVGNADMIQPDLTPLQPSLDDFMDISDFFTNSRLPQPPMPSNFPEPPSFSPVVDSLFSSGTLGPEVPPASSAMTHLSGHSRLQARNSCPGPLDSSAFLSSDFLLPEDPKPRLPPPPVPPPLLHYPPPAKVPGLEPCPPPPFPPMAPPTALLQEEPLFSPRFPFPTVPPAPGVSPLPAPAAFPPTPQSVPSPAPTPFPIELLPLGYSEPAFGPCFSMPRGKPPAPSPRGQKASPPTLAPATASPPTTAGSNNPCLTQLLTAAKPEQALEPPLVSSTLLRSPGSPQETVPEFPCTFLPPTPAPTPPRPPPGPATLAPSRPLLVPKAERLSPPAPSGSERRLSGDLSSMPGPGTLSVRVSPPQPILSRGRPDSNKTENRRITHISAEQKRRFNIKLGFDTLHGLVSTLSAQPSLKVSKATTLQKTAEYILMLQQERAGLQEEAQQLRDEIEELNAAINLCQQQLPATGVPITHQRFDQMRDMFDDYVRTRTLHNWKFWVFSILIRPLFESFNGMVSTASVHTLRQTSLAWLDQYCSLPALRPTVLNSLRQLGTSTSILTDPGRIPEQATRAVTEGTLGKPL

Tests used:
[1] = target: T1, HA-tagged human ChREBPα (human) (UniProt Q9NP71); assay: co-IP; […] (50 mM Tris pH 7.4, 150 mM NaCl, 1 mM EDTA, 1% Triton); […]
T1 sequence: B1 chain

[2] = target: T2, carbohydrate-response element-binding protein (ChREBP) (human (endogenous in HFFs)) (UniProt Q9NP71); assay: proximity ligation; in situ PLA (DuoLink) with anti-ChREBP and anti-IFI16 antibodies on fixed, permeabilised HFFs infected with HCMV (MOI 1) for 24 h; mock-infected cells as negative control
T2 sequence: B1 chain

[3] = target: gamma interferon (IFN-γ)-inducible protein 16 (IFI16) (human (endogenous in HFFs)) (UniProt Q16666); assay: co-IP; […] (50 mM Tris pH 7.4, 150 mM NaCl, 1 mM EDTA, 1% Triton); […]

Molecule | binding [1] | binding [2] | binding [3]
gamma interferon (IFN-γ)-inducible protein 16 (IFI16) (from UniProt Q16666 1-785) | binds | binds | –
B1 | – | – | binds
